Laboratory results reported in article PMC12669770.
These are yes or no findings as the source states them, for the method shown. In cells and extracts the contact can be indirect. A yes stands for co-enrichment or nearness to the bait. Other partners may have been found. For some of these results: A no says only that the protein was not detected with the bait.

Protein sequences, listed by entry. Tags and fused reporters are not part of them.
UniProt Q14534: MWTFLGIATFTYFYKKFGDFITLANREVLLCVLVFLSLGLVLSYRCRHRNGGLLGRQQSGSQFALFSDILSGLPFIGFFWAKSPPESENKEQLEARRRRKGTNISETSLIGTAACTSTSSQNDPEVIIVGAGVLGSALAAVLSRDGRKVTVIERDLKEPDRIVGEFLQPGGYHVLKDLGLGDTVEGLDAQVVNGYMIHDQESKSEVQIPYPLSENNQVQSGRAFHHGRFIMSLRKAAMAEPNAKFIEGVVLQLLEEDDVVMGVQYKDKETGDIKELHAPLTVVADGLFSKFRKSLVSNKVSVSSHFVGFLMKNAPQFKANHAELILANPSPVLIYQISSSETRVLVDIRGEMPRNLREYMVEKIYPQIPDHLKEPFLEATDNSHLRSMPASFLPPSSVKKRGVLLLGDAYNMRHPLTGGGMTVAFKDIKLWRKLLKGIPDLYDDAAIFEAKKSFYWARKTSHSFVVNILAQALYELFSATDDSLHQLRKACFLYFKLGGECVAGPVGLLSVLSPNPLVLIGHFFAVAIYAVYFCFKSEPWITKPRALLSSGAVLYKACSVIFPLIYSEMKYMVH
UniProt Q86T03: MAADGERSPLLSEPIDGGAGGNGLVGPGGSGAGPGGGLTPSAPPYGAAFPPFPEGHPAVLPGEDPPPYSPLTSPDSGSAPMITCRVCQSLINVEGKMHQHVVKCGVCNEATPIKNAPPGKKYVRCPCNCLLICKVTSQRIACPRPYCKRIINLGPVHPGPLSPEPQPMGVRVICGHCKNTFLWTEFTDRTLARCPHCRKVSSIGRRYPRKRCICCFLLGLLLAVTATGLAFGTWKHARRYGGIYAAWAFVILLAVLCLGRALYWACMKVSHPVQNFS

Legend:
[1] = biological target: V5-miniTurbo-mCherry-p62 (human) (UniProt Q13501); experiment: proximity labelling; miniTurbo-mCherry-p62 stably expressed in RPE1 cells, with or without 72 h ATG5 siRNA knock-down; 500 µM biotin and 5 mM ATP for 2 h at 37 °C; streptavidin pull-down and mass spectrometry; proteins found in the mCherry-p62 control removed
[2] = biological target: V5-miniTurbo-mCherry-p62 (human) (UniProt Q13501); experiment: condition: only cells with endogenous ATG5 (no ATG5 knock-down); proximity labelling; miniTurbo-mCherry-p62 RPE1 cells with endogenous ATG5 (no knock-down); 500 µM biotin and 5 mM ATP for 2 h at 37 °C; streptavidin pull-down and mass spectrometry

binding [1]	binding [2]	Substance
binds	no binding	ITPR2 (from UniProt Q14571 1-2701)
binds	–	SQLE (from UniProt Q14534 1-574)
binds	–	PIP4P1 (from UniProt Q86T03 1-277)
